Test results taken from PubChem BioAssay AID493014 (National Center for Advancing Translational Sciences (NCATS), 2011).
Some of the results follow. The main result of the screen is listed elsewhere. These columns were measured beside it and carry no call. Most of these compounds were active or inconclusive in the main read-out, so they are no random draw. The note in brackets gives the kind of curve behind each potency; many fits are weak.

Assay: qHTS Assay to Find Inhibitors of Chronic Active B-Cell Receptor Signaling
Settings: ABC-DLBCL IkBa-CBG/CBR reporter, luminescence ratio (green luciferase fused to IkBa over red control in TMD8 lymphoma cells), 4 h
Procedure, shortened: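 TMD8 human ABC-DLBCL cells with doxycycline-inducible IκBα–green luciferase fusion and unfused red luciferase, in 0.5% FBS medium; compounds up to 46 uM, 4 h at 37C. Green/red luminescence ratio, filter-overlap corrected, fitted to concentration-response curves.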

[1] = measured here: CBR red luminescence, cell number
[2] = measured here: IkBa-CBG green luminescence

SMILES	AC50 [1]	AC50 [2]
Cc1csc(NC(=O)c2ccc(S(=O)(=O)N(C)c3ccccc3)cc2)n1	14.1 µM [falling, partial curve, poor fit]	
Cc1cc(Nc2c(C)n(C)n(-c3ccccc3)c2=O)n2c(nc3ccccc32)c1C#N	16.4 µM [rising, partial curve, poor fit]	
CCCCOC(=O)Nc1cc(C(=O)OC)ccc1C(=O)OC	29.1 µM [rising, single point]	
NC(=O)c1ccc(NC(=O)c2ccccc2S(=O)(=O)c2ccccc2[N+](=O)[O-])cc1	18.4 µM [rising, partial curve, poor fit]	
O=C(NCC1CCCO1)c1sc2ccccc2c1Cl (stereo not given)	0.461 µM [rising, full curve, poor fit]	
O=C(CCN1C(=O)/C(=C/c2ccc(Cl)cc2)SC1=S)NCCCn1ccnc1	12.6 µM [falling, single point]	
O=C(c1ccccc1)c1ccc(Cn2cc(CCCO)nn2)cc1	8.91 µM [falling, partial curve]	
[O-][n+]1onc2c1CCc1[nH]c(-c3ccccc3)nc1-2	5.62 µM [falling, partial curve, poor fit]	
CC(=O)Oc1ccc2ccccc2c1C(NC(=O)Cc1ccccc1)c1ccccc1 (stereo not given)	29.1 µM [falling, single point]	
CC(C)CC(=O)Nc1ccc(S(=O)(=O)Nc2nccs2)cc1	0.794 µM [rising, full curve, poor fit]	
Cc1cc(C)n(-c2nc(-c3ccccc3)cs2)n1	29.1 µM [rising, single point]	
N#CCC(=O)NCCCOC(=O)Nc1ccc(Cl)c(Cl)c1	3.98 µM [rising, single point]	
O=C(COC(=O)CSc1ccccc1)NCCNC(=O)COC(=O)CSc1ccccc1	1.03 µM [rising, partial curve, poor fit]	
O=C(Nc1ccccc1F)c1ccccc1-c1ccccc1	0.82 µM [rising, full curve, poor fit]	
Cc1ccc(N=Nc2cc(C)ccc2O)c(C)c1	35.5 µM [rising, single point]	
O=[N+]([O-])c1cc(/C=N\O)ccc1Oc1ccc(F)cc1		11.2 µM [falling, partial curve, poor fit]
COCCCN1C(=O)C(=O)/C(=C(/O)c2ccc(C)cc2)C1/C=C/c1ccccc1 (stereo not given)	0.0891 µM [rising, full curve, poor fit]	
COC(=O)Nc1nn(Cc2ccccc2F)cc1Br	18.4 µM [rising, single point]	
CC(=O)Nc1sc(N/N=C\c2ccccc2)nc1-c1cccs1	9.2 µM [falling, partial curve]	
CCOC(=O)Nc1cccc(C(=O)O)c1	6.51 µM [falling, partial curve]	
O=C(Nc1ccc(F)c(F)c1)C1CCN(S(=O)(=O)c2cccc3nonc23)CC1	31.6 µM [falling, single point]	

SMILES	AC50 [1]	AC50 [2]
CC1(c2ccc3noc(-c4ccc(F)cc4)c3c2)OCCO1	1.64 µM [rising, partial curve]	
CC(=O)Nc1ccc(N(CC(=O)NCC2CCCO2)C(=O)CCC(=O)Nc2cc(C)on2)cc1 (stereo not given)	11.2 µM [rising, partial curve, poor fit]	
CC1(C)Cc2ccccc2C(N/N=C/c2ccc([N+](=O)[O-])cc2)=N1	11.2 µM [rising, partial curve, poor fit]	
CC(C)c1ccc(Nc2ncccc2C#N)cc1	5.62 µM [rising, partial curve]	
N#Cc1ccccc1S(=O)c1ccccc1C(=O)Nc1ccccc1 (stereo not given)	7.08 µM [rising, partial curve, poor fit]	
COC(=O)c1cc(NC(=O)CSc2nnc(N)s2)ccc1Cl	2.82 µM [falling, partial curve, poor fit]	
COc1ccc2c(CC(=O)Nc3c(C)n(C)n(-c4ccccc4)c3=O)coc2c1	23.1 µM [falling, partial curve, poor fit]	
O=C1C2C3c4ccccc4C(c4ccccc43)C2C(=O)N1c1cccnc1 (stereo not given)	16.4 µM [falling, single point]	
O=C(N/N=C/c1c[nH]c2ccccc12)c1ccn[nH]1	7.94 µM [falling, partial curve]	
COc1ccc(C(=O)OCC(=O)N(C)C2CCS(=O)(=O)C2)cc1S(=O)(=O)N(C)Cc1ccccc1 (stereo not given)	7.31 µM [falling, partial curve]	
O=C(Cn1cc(S(=O)(=O)N2CCN(c3ccccc3F)CC2)c2ccccc2c1=O)NCCCN1CCCCCC1	3.98 µM [falling, partial curve, poor fit]	
COc1cc2nc(N(C)C)nc(N)c2cc1OC	10 µM [falling, partial curve]	
O=C(Nc1ccc(O)c(C(=O)O)c1)c1ccc2c(c1)C(=O)N(CC1CCCO1)C2=O (stereo not given)	11.2 µM [falling, partial curve, poor fit]	
O=C(O)c1cccnc1SCc1cccc(Cl)c1	10 µM [rising, partial curve, poor fit]	
Cc1nn(Cc2ccccc2Cl)c2sc(C(=O)NCc3ccc4c(c3)OCO4)cc12	5.8 µM [rising, full curve, poor fit]	
C=CC[C@H](CC(=O)N[C@H](CO)Cc1ccccc1)C(=O)N[C@@H](COC(=O)[C@H](CC=C)CC(=O)OC(C)(C)C)Cc1c[nH]c2ccccc12	25.9 µM [falling, single point]	
Cc1ccc(S(=O)(=O)N(Cc2n[nH]c(=S)n2-c2ccccc2)c2cccc(Cl)c2)cc1	0.447 µM [falling, full curve]	
CCC1Sc2ccc(S(=O)(=O)Nc3cc(OC)cc(OC)c3)cc2NC1=O (stereo not given)	17.8 µM [falling, single point]	
Cc1ccc(S(=O)(=O)Nc2ccc3nc(-c4cccn4C)[nH]c3c2)cc1	7.31 µM [falling, partial curve, poor fit]	
COc1cccc(-c2nc(CCl)cs2)c1OC		11.2 µM [falling, partial curve, poor fit]
O=[N+]([O-])c1cccc(/C([O-])=C(/C(=S)Nc2ccccc2)[n+]2ccccc2)c1	23.1 µM [falling, partial curve]	

SMILES	AC50 [1]	AC50 [2]
COC(=O)C1CSc2[nH]c(=O)sc2C1c1ccc(OC)c(OC)c1 (stereo not given)	0.2 µM [rising, full curve, poor fit]	
C=CCNCCCCOc1c(Cl)cc(C)cc1Br	7.94 µM [falling, partial curve]	
Cc1[nH]c2ccccc2c1/C=N/NC(=O)Nc1ccccc1	14.1 µM [falling, single point]	
Clc1ccc(-c2nnc(-c3ccccc3)c(-c3c[nH]c4ccccc34)n2)cc1	11.2 µM [falling, partial curve, poor fit]	
COc1ccc(OC)c(N/C(N)=N/c2nc(C)cc(C)n2)c1	3.98 µM [falling, partial curve, poor fit]	
COc1ccc(OC)c(C2NC(=O)CCC2[N+](=O)[O-])c1 (stereo not given)	35.5 µM [rising, single point]	
CC(C)c1ccc(NC(=S)NNC(=O)C2CC2)cc1	3.55 µM [rising, partial curve, poor fit]	
CCN(CC(=O)NCc1cccs1)C(=O)COc1ccccc1C#N	29.1 µM [falling, single point]	
Cc1nc2ccccc2c(=O)n1CC(=O)N1CCOCC1	9.2 µM [rising, single point]	
O=C(O)COCC(=O)Nc1ccc2c(c1)oc1ccccc12	17.8 µM [falling, partial curve]	
O=C(O)c1ccc(NC(CSCc2ccc(F)cc2)C(=O)O)c([N+](=O)[O-])c1 (stereo not given)	18.4 µM [falling, partial curve, poor fit]	
Cc1ccc(CSC2=Nc3ccccc3C3=NC(CC(=O)NCc4ccco4)C(=O)N23)cc1 (stereo not given)	20.6 µM [falling, single point]	
Cc1cccc(/C=N\Nc2cn[nH]c(=O)c2Cl)c1	12.6 µM [rising, partial curve]	
CC(=O)n1nc(-c2ccc(C)cc2)nc1NCc1ccc(F)cc1	25.1 µM [rising, single point]	
Brc1ccc(-n2cnc(-c3ccccc3)c2)cc1	0.447 µM [rising, full curve, poor fit]	
CCOc1cc(C(=O)OCC(=O)Nc2ccc(SC(F)F)cc2)cc(OCC)c1OCC	3.26 µM [rising, single point]	
COc1cccc(/C=N/NC(=O)CSc2nnc(C)n2-c2ccccc2)c1O	3.55 µM [falling, partial curve]	
Cc1ccc(C(=O)O/N=C(\N)Cc2cccs2)c(Cl)c1	0.794 µM [rising, full curve, poor fit]	35.5 µM [falling, partial curve, poor fit]
Cc1ccc(NCN2C(=O)C(=O)c3ccccc32)nc1	29.1 µM [rising, partial curve, poor fit]	29.1 µM [falling, single point]
COc1ccc2[nH]c3c(c2c1)CCN1C(=O)C(CC(=O)NCC24CC5CC(CC(C5)C2)C4)C[C@H](C(=O)N2CCCCC2)[C@@]31C (stereo not given in full)	23.1 µM [rising, partial curve, poor fit]	5.17 µM [falling, partial curve, poor fit]

Exported as a markdown table: entries from further up

| SMILES | AC50 [1] | AC50 [2] |
| --- | --- | --- |
| C=CCNCCCCOc1c(Cl)cc(C)cc1Br | 7.94 µM [falling, partial curve] |  |
| CCN(CC(=O)NCc1cccs1)C(=O)COc1ccccc1C#N | 29.1 µM [falling, single point] |  |
| COc1cccc(/C=N/NC(=O)CSc2nnc(C)n2-c2ccccc2)c1O | 3.55 µM [falling, partial curve] |  |
